Data as given in patent publication US20250019426A1 (UCT BIOSCIENCE, published 2025).
These are yes or no findings as the source states them, for the method shown. Some binding calls cover weakened binding; strength is not graded here.

Protein sequences, listed by entry. Tags and fused reporters are not part of them. Residues count along the entry.
UniProt P11021, residues 19-650: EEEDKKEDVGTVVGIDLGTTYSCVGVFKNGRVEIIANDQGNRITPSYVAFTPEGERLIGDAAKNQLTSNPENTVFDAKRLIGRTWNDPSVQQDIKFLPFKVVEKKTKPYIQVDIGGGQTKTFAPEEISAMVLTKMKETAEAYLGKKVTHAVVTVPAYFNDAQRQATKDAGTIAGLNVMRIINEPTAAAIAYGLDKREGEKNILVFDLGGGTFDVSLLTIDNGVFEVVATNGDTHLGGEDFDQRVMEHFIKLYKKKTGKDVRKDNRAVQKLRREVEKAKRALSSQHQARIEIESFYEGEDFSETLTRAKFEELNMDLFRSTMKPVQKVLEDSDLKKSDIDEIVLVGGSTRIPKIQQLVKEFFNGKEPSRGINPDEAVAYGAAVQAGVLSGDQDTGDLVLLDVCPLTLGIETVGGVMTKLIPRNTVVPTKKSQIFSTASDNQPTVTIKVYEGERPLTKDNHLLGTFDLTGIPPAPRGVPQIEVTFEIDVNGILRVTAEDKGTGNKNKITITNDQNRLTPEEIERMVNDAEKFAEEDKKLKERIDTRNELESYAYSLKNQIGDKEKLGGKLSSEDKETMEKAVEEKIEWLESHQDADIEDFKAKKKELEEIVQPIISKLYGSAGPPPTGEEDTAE

Molecular target: T1, recombinant GRP78 protein (human, UniProt P11021 19-650, limits assumed)
T1 construct: also called HSPA5/GRP78 (Active Protein) Human Protein (ORIGENE, Cat. No. AR03021PU-L); glucose-regulated protein 78
Test: binding to recombinant GRP78 (Example 2: ELISA, Biacore)

- binding: binds
B1: anti-GRP78 antibody G2D03 (antibody, V domains shown)
VH: EVQLVESGGGLVQPGGSLRLSCAASGFTFSQYAMAWVRQAPGKGLEWVSGISPYGSNTRYADSVKGRFTISRDNSKNTLYLQMNSLRAEDTAVYYCARNGGYSYTWFDLWGQGTLVTVSS
VL: DIQMTQSPSSLSASVGDRVTITCRASQSISSDLAWYQQKPGKAPKLLIYWASKLQSGVPSRFSGSGSGTDFTLTISSLQPEDFATYYCMQMYNTPPTFGQGTKVEIKR
notes: Detected with anti-human IgG; also called G2D03 mAb; anti-GRP78 monoclonal antibody (G2D03)
